From paper PMC6003988, “VRK1 and AURKB form a complex that cross inhibit their kinase activity and the phosphorylation of histone H3 in the progression of mitosis” (Cellular and Molecular Life Sciences: CMLS, 2018)
These are yes or no findings as the source states them, for the method shown. Binding seen in cells or lysates may run through a third protein. Some entries that bind do so weakly or less than the wild type. Sequences can lack the tags named with a protein.

Amino acid sequences for entries named in this document (tags omitted).
UniProt Q96GD4: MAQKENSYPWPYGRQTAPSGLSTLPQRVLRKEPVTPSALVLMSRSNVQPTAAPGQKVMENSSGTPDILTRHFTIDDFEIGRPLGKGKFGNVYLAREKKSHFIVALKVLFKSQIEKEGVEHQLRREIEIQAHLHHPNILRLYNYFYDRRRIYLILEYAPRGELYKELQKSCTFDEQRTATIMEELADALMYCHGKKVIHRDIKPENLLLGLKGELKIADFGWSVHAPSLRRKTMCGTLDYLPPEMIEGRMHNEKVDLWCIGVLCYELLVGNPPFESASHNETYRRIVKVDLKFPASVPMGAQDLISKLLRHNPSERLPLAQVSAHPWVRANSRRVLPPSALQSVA

Legend:
[1] = molecular target: T1, HA–VRK1–K179E, kinase-dead, expressed in HEK293T cells (human) (UniProt Q99986); test: co-IP; immunoprecipitation of HA-VRK1 (WT or kinase-dead) from extracts of HEK293T cells co-transfected with V5-AURKB; AURKB detected by immunoblot
T1 sequence: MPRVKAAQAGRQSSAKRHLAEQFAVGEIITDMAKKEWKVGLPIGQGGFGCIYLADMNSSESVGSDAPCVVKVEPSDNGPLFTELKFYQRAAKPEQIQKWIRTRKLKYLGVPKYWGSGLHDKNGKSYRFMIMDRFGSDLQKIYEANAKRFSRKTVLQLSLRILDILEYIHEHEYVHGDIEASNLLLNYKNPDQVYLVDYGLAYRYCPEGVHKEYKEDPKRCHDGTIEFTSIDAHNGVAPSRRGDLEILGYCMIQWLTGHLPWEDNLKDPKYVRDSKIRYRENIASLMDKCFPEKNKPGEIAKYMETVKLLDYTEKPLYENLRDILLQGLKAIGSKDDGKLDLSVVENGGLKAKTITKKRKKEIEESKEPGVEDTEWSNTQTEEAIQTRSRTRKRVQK

[2] = molecular target: T2, GST–VRK1 (K179E), kinase inactive, expressed in HEK293T cells (human) (UniProt Q99986); test: pull-down; pull-down of GST-VRK1 (kinase active or inactive) from extracts of HEK293T cells co-transfected with V5-AURKB; AURKB detected by immunoblot
T2 sequence: T1 sequence

Q: For “V5–AURKB, expressed in HEK293T cells (from UniProt Q96GD4 1-344) (enzyme)”, which binding [1] is on record?
A: binds

Q: And the binding [2]?
A: binds
